No constants are given. Whether binding was seen depends on the method and setting. Binding seen in cells or lysates may run through a third protein. Some binding calls cover weakened binding; strength is not graded here.
Target: GST-tagged Cx43CT (V236-I382), carboxyl terminal domain of connexin43 (rat) (UniProt P08050)
Assay: pull-down; GST-Cx43CT on glutathione beads, no cross-linker; Daudi or Jurkat cell lysate (1 mL, 2 mg/mL), 6 h at 4 °C; 50 mM HEPES pH 7.4, 150 mM NaCl, 1 mM DTT, 0.5% Triton X-100; Western blot with anti-BTK or anti-ITK; only the target purified

Sequences of proteins named here, by UniProt entry; tags and fusion partners are left off.
UniProt P08050: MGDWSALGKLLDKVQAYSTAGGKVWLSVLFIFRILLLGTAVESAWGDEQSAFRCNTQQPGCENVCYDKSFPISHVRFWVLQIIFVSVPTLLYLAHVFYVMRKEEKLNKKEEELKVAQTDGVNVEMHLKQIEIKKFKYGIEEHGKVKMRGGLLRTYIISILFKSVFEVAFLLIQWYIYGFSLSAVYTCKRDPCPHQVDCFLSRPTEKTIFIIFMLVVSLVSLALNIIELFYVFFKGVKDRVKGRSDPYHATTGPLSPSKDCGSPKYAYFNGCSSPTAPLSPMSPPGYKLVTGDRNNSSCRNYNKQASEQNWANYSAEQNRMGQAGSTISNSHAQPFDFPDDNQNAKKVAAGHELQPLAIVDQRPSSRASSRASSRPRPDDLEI

B1: Interleukin-2-inducible T-cell kinase (ITK) (enzyme, UniProt Q08881 1-620)
chain: MNNFILLEEQLIKKSQQKRRTSPSNFKVRFFVLTKASLAYFEDRHGKKRTLKGSIELSRIKCVEIVKSDISIPCHYKYPFQVVHDNYLLYVFAPDRESRQRWVLALKEETRNNNSLVPKYHPNFWMDGKWRCCSQLEKLATGCAQYDPTKNASKKPLPPTPEDNRRPLWEPEETVVIALYDYQTNDPQELALRRNEEYCLLDSSEIHWWRVQDRNGHEGYVPSSYLVEKSPNNLETYEWYNKSISRDKAEKLLLDTGKEGAFMVRDSRTAGTYTVSVFTKAVVSENNPCIKHYHIKETNDNPKRYYVAEKYVFDSIPLLINYHQHNGGGLVTRLRYPVCFGRQKAPVTAGLRYGKWVIDPSELTFVQEIGSGQFGLVHLGYWLNKDKVAIKTIREGAMSEEDFIEEAEVMMKLSHPKLVQLYGVCLEQAPICLVFEFMEHGCLSDYLRTQRGLFAAETLLGMCLDVCEGMAYLEEACVIHRDLAARNCLVGENQVIKVSDFGMTRFVLDDQYTSSTGTKFPVKWASPEVFSFSRYSSKSDVWSFGVLMWEVFSEGKIPYENRSNSEVVEDISTGFRLYKPRLASTHVYQIMNHCWKERPEDRPAFSRLLRQLAEIAESGL
binding: binds

Reference: paper PMC10135648
